Laboratory results taken from patent publication US20170015748A1 (NATIONAL RESEARCH COUNCIL OF CANADA, published 2017).

Molecular target: Insulin receptor
Assay: SPR

B1: IGF1R-5 VHH (VHH)
VHH: QVKLEESGGGLVQAGGSLRLSCAASGRTIDNYAMAWSRQAPGKDREFVATIDWGDGGARYANSVKGRFTISRDNAKGTMYLQMNNLEPEDTAVYSCAMARQSRVNLDVARYDYWGQGTQVTVSS
notes: Llama VHH expressed in E. coli TG1 from vector pSJF2H and purified by IMAC; Monomeric by SEC; also called anti-IGF1R VHH IGF1R-5; wild-type IGF1R-5
For B1, the binding was “no binding”.

No constants are given. Whether binding was seen depends on the method and setting.
